# Record: PubChem BioAssay AID1508588 (Peter MacCallum Cancer Centre, 2020)
# Assay: 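Genome-wide search for knock-downs that heighten vemurafenib action in melanoma cells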 (primary screen)
# System: human WM266.4 melanoma cells (BRAF V600 mutant)
# Reagent: siRNA pool against human genes, 40 nM
# Duration: 96 h from transfection to read-out
# Conditions: vemurafenib 300 nM (about IC25), added 48 h after transfection, for 48 h; comparison arm got DMSO vehicle only
# Detection: 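Cell gain (DAPI nuclei at end minus before drug, mean of two replicates) and medium lactate by absorbance per cell, both as ratio to non-targeting siRNA, also grouped into fold-change classes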
# Scale: cell gain with vemurafenib: higher = more cell gain than with non-targeting siRNA; lactate per cell with vemurafenib: higher = more lactate made per cell
# Active means: 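a knock-down counts as enhancing when its fold-change classes with vehicle and with vemurafenib, taken together, show a stronger drug effect on cell gain or lactate per cell; exact class pairs not stated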
# Calls: active = enhances vemurafenib effect; inactive = no enhancement seen
# In all, the deposit lists about 18,000 reagents; shown is a part drawn at random. Of all reagents, 790 (4.4%) are marked active. 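Calls rest on a combination of fold-change classes in drug and vehicle arms, not all shown here.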 A number with no mark means an inactive call. A reagent listed more than once was tested more than once; the source does not tell the runs apart.
gene symbol,cell gain with vemurafenib,lactate per cell with vemurafenib
ECE2,0.7,0.76
ECE2,0.79,0.91
MED22,0.73,1.06
MPDZ,1.04,0.82
RUVBL1,0.13,0.98
DALRD3,0.79,1.08
EEF2KMT,0.12,0.12
MRPL42,-0.03,0.3
VPREB1,1.09,0.76
GPATCH11,0.72,1.01
DHX36,0.61,1.94
CBR1,0.37,1.23
SEC24C,0.84 (active),0.45
PNCK,0.28,1.26
EMC9,0.16 (active),1.18
SMAD9,0.51,0.88
TXNDC15,0.29,2.04
CANT1,1.08,0.84

Continued (2 carried over from the part before).
gene symbol,cell gain with vemurafenib,lactate per cell with vemurafenib
TXNDC15,0.29,2.04
CANT1,1.08,0.84
XKR3,0.68,0.87
TASP1,0.36,0.79
ANKRD22,0.91,1.07
AASDH,0.76,0.98
KRT83,0.57,2.58
TMEM260,0.27,0.96
OR10V1,0.41,0.26
AGR2,0.61,1.6
EPB41L4A,0.88,0.69
USHBP1,0.83,0.76
PAX5,0.58,1.06
PTPN6,0.39,1.2
PTPN5,0.38,0.99
NOL4L,0.29,0.94
WNT8B,0.24,1.6
GPSM1,0.5,1.12
